Data: PubChem BioAssay AID493014 (National Center for Advancing Translational Sciences (NCATS), 2011)
The other results are listed elsewhere or left out. These are further read-outs of the screen, such as a control signal, another cell line or another target. No call is given for them. Compounds called inactive in the main read-out are mostly missing here. The note in brackets gives the kind of curve behind each potency; many fits are weak.

Test: qHTS Assay to Find Inhibitors of Chronic Active B-Cell Receptor Signaling
Details: ABC-DLBCL IkBa-CBG/CBR reporter, luminescence ratio (green luciferase fused to IkBa over red control in TMD8 lymphoma cells), 4 h
Procedure, shortened: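 TMD8 human ABC-DLBCL cells with doxycycline-inducible IκBα–green luciferase fusion and unfused red luciferase, in 0.5% FBS medium; compounds up to 46 uM, 4 h at 37C. Green/red luminescence ratio, filter-overlap corrected, fitted to concentration-response curves.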

[1] = measured here: CBR red luminescence, cell number
[2] = measured here: IkBa-CBG green luminescence

SMILES | AC50 [1] | AC50 [2]
CCN(CC)S(=O)(=O)c1ccc(C(=O)N2CCCCC2)cc1 | 16.4 µM [rising, partial curve] | –
Cc1csc(NC(=O)CSc2nnc(-c3ccoc3C)n2C(C)c2ccccc2)n1 (centres undefined) | 15.8 µM [falling, single point] | –
CC(=C/C(=O)O)/C(=C\c1ccc(Br)o1)C(=O)O | 0.398 µM [rising, full curve, poor fit] | –
COCCn1c(C)cc(C(=O)CSc2ccc(NC(C)=O)cc2)c1C | 10 µM [rising, single point] | –
N#Cc1ccc(NC(=S)NC(=O)C2CCCCC2)cc1 | 0.411 µM [rising, partial curve, poor fit] | –
COc1ccc(-n2c(CNC(=O)COc3ccc(Cl)cc3Cl)n[nH]c2=S)cc1 | 22.4 µM [falling, single point] | –
O=C(CN1C(=O)NC2(CCc3ccccc32)C1=O)c1ccc(F)c(F)c1 (centres undefined) | 2.31 µM [falling, partial curve, poor fit] | –
CC(C)Nc1ccc(-n2nc3ccccc3[n+]2[O-])cc1 | 10 µM [falling, partial curve] | –
Nc1c(SCCC(=O)O)ccc2c1C(=O)c1ccccc1C2=O | 0.282 µM [falling, full curve, poor fit] | –
O=C(CN1C(=O)C2CCCCC2C1=O)Nc1cc([N+](=O)[O-])ccc1F (centres undefined) | 0.0731 µM [rising, full curve, poor fit] | –
COc1ccc(C2c3ccc4ccccc4c3Oc3ncn(CCCN(C)C)c(=N)c32)cc1 (centres undefined) | 15.8 µM [falling, single point] | –
CC(=O)Nc1ccc(NC(=O)CSC2=NS(=O)(=O)c3cc(Cl)ccc3N2)cc1 | 6.51 µM [falling, partial curve] | –
Cc1ccc(COc2ccsc2C(=O)NN)cc1 | 14.1 µM [falling, single point] | –
CCCn1nc(NC(=O)C2CCCO2)c2cc3cccc(C)c3nc21 (centres undefined) | 0.501 µM [falling, full curve, poor fit] | –
COc1cccc(NC(=O)c2ccc3c(O)c(S(=O)(=O)c4ccccc4)c(=O)[nH]c3c2)c1 | 35.5 µM [falling, partial curve, poor fit] | –
Cn1c(SCC(=O)c2ccc(O)c(O)c2)nnc1-c1ccccc1 | 10 µM [falling, partial curve] | –
N#CCSc1nccc(/C=C/c2ccccc2)n1 | 2 µM [rising, partial curve, poor fit] | –
COc1ccccc1C(=O)N(Cc1ccccc1)c1ccc(C)cc1 | 35.5 µM [falling, single point] | –
NC(=O)C1CCN(C(=O)C(=O)c2cn(CC(=O)N3CCCCCC3)c3ccccc23)CC1 | 2.51 µM [falling, partial curve, poor fit] | –
Cn1nccc1C(=O)N1CCc2c([nH]c3ccccc23)C1c1ccc(F)cc1 (centres undefined) | 22.4 µM [falling, single point] | –
COc1ccc(N2CCN(C(C)C(=O)Nc3nnc(C)s3)CC2)cc1 (centres undefined) | 0.0891 µM [rising, full curve, poor fit] | –

SMILES | AC50 [1] | AC50 [2]
Clc1ccc(CO/N=C2\CCCc3nonc32)cc1 | 11.6 µM [rising, partial curve] | –
O=C(O)c1ccc(C(=O)c2ccc3c(c2)C(=O)N(CCO)C3=O)cc1 | 6.31 µM [falling, partial curve, poor fit] | 3.55 µM [rising, single point]
CS(=O)(=O)NCCNc1ccc(Cl)cc1[N+](=O)[O-] | 14.1 µM [rising, partial curve, poor fit] | –
CC(=O)Nc1ccc(C(=O)COC(=O)C2CC2C)c(F)c1 (centres undefined) | 16.4 µM [rising, partial curve] | –
CCOC(=O)c1c(S(=O)(=O)Nc2cccc(Cl)c2)c(C)n(C)c1C | 31.6 µM [rising, single point] | –
CC(=C/c1ccccc1)/C=N/n1c(-c2ccco2)n[nH]c1=S | 10 µM [falling, partial curve] | –
CCCN1C2CCCC1CC(NC(=S)Nc1ccc(OC)cc1)C2 (centres undefined) | 14.1 µM [rising, single point] | –
Cc1nc(N/N=C/c2ccc(Br)cc2)cc(N2CCOCC2)n1 | 12.6 µM [rising, partial curve, poor fit] | –
COc1ccc2nc3c(cc2c1)c(NC(=O)c1cccs1)nn3CC(C)C | 8.91 µM [falling, partial curve, poor fit] | –
NC(=O)c1ccc(NC(=O)CN2CCN(S(=O)(=O)c3ccc4c(c3)OCCO4)CC2)cc1 | 29.1 µM [rising, single point] | –
CCOC(=O)[C@@H]1[C@H]2COc3cc(OC)ccc3[C@H]2N2C(=O)N(c3cccc(F)c3)C(=O)[C@@]12C | 11.6 µM [rising, partial curve, poor fit] | –
Cc1ccccc1OCC(=O)Nc1cnn(CCCC(=O)O)c1 | 5.62 µM [rising, full curve] | 10 µM [falling, partial curve, poor fit]
CSc1ccccc1OCc1cc(C(=O)NC(C)c2cnn(C)c2)no1 (centres undefined) | 25.1 µM [falling, single point] | –
COc1ccc(-c2sc3cc4c(cc3c2C#CC2(N)CCCCC2)OCO4)cc1 | 23.1 µM [rising, single point] | –
COc1cc([N+](=O)[O-])cc(/C=N/NC(=O)C(C)Nc2cccc3ccccc23)c1O (centres undefined) | 18.4 µM [falling, single point] | 18.4 µM [rising, partial curve, poor fit]
Cc1nc(N2CCOCC2)c2oc3ccccc3c2n1 | 3.98 µM [falling, full curve, poor fit] | –
CCCC(C)NC(=O)c1ccc(OCc2ccc(Cl)cc2)c(OC)c1 (centres undefined) | 18.4 µM [rising, partial curve, poor fit] | –
COc1cccc(NS(=O)(=O)c2ccc3[nH]cc(C(=O)NCCCOC(C)C)c(=O)c3c2)c1 | 2.51 µM [rising, partial curve, poor fit] | –
c1ccc(N/N=C(\Cc2nc3ccccc3[nH]2)c2ccccc2)cc1 | 4.61 µM [rising, partial curve, poor fit] | –
COc1ccc(S(N)(=O)=O)cc1C(=O)OCC1CCCCC1 | 11.2 µM [rising, partial curve, poor fit] | –
NC(=O)c1cc(Cl)cn(-c2ccccc2)c1=O | 18.4 µM [rising, single point] | –

SMILES | AC50 [1] | AC50 [2]
O=C1N(Cc2cccc(Cl)c2)C[C@@H]2C[C@@H](c3cccc4cccnc34)N3CCC[C@@]123 | 1.12 µM [falling, partial curve, poor fit] | –
Cc1nc(C(=O)NC2CC2)sc1C1(C)CC(c2cccc([N+](=O)[O-])c2)=NO1 (centres undefined) | 3.16 µM [rising, full curve, poor fit] | –
CCN(CC(=O)Nc1c(F)cccc1F)C(=O)CCc1ccc(OC)cc1 | 20 µM [falling, partial curve, poor fit] | –
COc1cc(C)ccc1OCCOc1c(Cl)cc(Cl)cc1Cl | 14.1 µM [rising, partial curve, poor fit] | –
Cc1ccc(C(=O)C2CCN(C(=S)NCC3CCCO3)CC2)cc1 (centres undefined) | 11.2 µM [rising, partial curve, poor fit] | –
O=[N+]([O-])c1ccc(O)c(/C=N/Nc2ncnc3c2cnn3-c2ccccc2)c1 | 0.398 µM [falling, full curve, poor fit] | –
O=C(Nc1ccc(Nc2ccccc2)cc1)c1ccccc1F | 17.8 µM [falling, single point] | –
COC(=O)CN1C(=O)N/C(=C/c2cc3c(cc2OC)OCO3)C1=O | 0.562 µM [falling, full curve, poor fit] | –
CSCCNC(=O)c1ccc(OC2CCN(S(=O)(=O)N(C)C)CC2)cc1 | 3.98 µM [rising, full curve, poor fit] | –
Cc1nnc(NC(=O)c2oc3ccccc3c2C)s1 | 0.0891 µM [rising, full curve, poor fit] | –
Cc1ccc(NC(=O)c2ccc(N/N=C/c3cccc(O)c3)c([N+](=O)[O-])c2)cc1 | 0.224 µM [falling, full curve] | –
Cc1cc(C(=O)N/N=C/c2ccc(O)c([N+](=O)[O-])c2)c(C)n1-c1ccc(F)cc1 | 7.31 µM [falling, partial curve, poor fit] | –
CCOC(=O)CCC(=O)Nc1ncnc2c1C(c1ccccc1)c1c(ccc3ccccc13)O2 (centres undefined) | 29.1 µM [falling, single point] | –
Cn1cc([N+](=O)[O-])c(C(=O)Nc2nc(-c3ccc(Cl)cc3)cs2)n1 | 3.26 µM [falling, partial curve] | –
CCCNc1ncnc2c1cnn2-c1ccc(OC)cc1 | 11.2 µM [falling, single point] | –
CCc1c(C#N)c(SCCC(=O)Nc2ccc(OC)cc2)nc2c1C(=O)CC(C)(C)C2 | 20.6 µM [falling, partial curve, poor fit] | –
CC(=O)c1sc(NC(=O)CCS(=O)(=O)c2ccc(Cl)cc2)nc1C | 2.31 µM [falling, full curve, poor fit] | –
COc1ccccc1CNC(=O)C(=O)NCC(c1cccs1)S(=O)(=O)c1ccc(F)cc1 (centres undefined) | 10 µM [falling, partial curve] | –
O=C(NCCc1ccccc1)C(=O)NCC1OCCN1S(=O)(=O)c1ccccc1 (centres undefined) | 1.41 µM [rising, partial curve, poor fit] | –

17 of the compounds above, as tab-separated lines:
SMILES	AC50 [1]	AC50 [2]
Cc1csc(NC(=O)CSc2nnc(-c3ccoc3C)n2C(C)c2ccccc2)n1 (centres undefined)	15.8 µM [falling, single point]	–
O=C(CN1C(=O)NC2(CCc3ccccc32)C1=O)c1ccc(F)c(F)c1 (centres undefined)	2.31 µM [falling, partial curve, poor fit]	–
Nc1c(SCCC(=O)O)ccc2c1C(=O)c1ccccc1C2=O	0.282 µM [falling, full curve, poor fit]	–
COc1ccc(C2c3ccc4ccccc4c3Oc3ncn(CCCN(C)C)c(=N)c32)cc1 (centres undefined)	15.8 µM [falling, single point]	–
O=C(O)c1ccc(C(=O)c2ccc3c(c2)C(=O)N(CCO)C3=O)cc1	6.31 µM [falling, partial curve, poor fit]	3.55 µM [rising, single point]
CC(=O)Nc1ccc(C(=O)COC(=O)C2CC2C)c(F)c1 (centres undefined)	16.4 µM [rising, partial curve]	–
Cc1nc(N/N=C/c2ccc(Br)cc2)cc(N2CCOCC2)n1	12.6 µM [rising, partial curve, poor fit]	–
COc1ccc2nc3c(cc2c1)c(NC(=O)c1cccs1)nn3CC(C)C	8.91 µM [falling, partial curve, poor fit]	–
Cc1ccccc1OCC(=O)Nc1cnn(CCCC(=O)O)c1	5.62 µM [rising, full curve]	10 µM [falling, partial curve, poor fit]
Cc1nc(N2CCOCC2)c2oc3ccccc3c2n1	3.98 µM [falling, full curve, poor fit]	–
CCCC(C)NC(=O)c1ccc(OCc2ccc(Cl)cc2)c(OC)c1 (centres undefined)	18.4 µM [rising, partial curve, poor fit]	–
COc1cccc(NS(=O)(=O)c2ccc3[nH]cc(C(=O)NCCCOC(C)C)c(=O)c3c2)c1	2.51 µM [rising, partial curve, poor fit]	–
c1ccc(N/N=C(\Cc2nc3ccccc3[nH]2)c2ccccc2)cc1	4.61 µM [rising, partial curve, poor fit]	–
CCN(CC(=O)Nc1c(F)cccc1F)C(=O)CCc1ccc(OC)cc1	20 µM [falling, partial curve, poor fit]	–
Cc1ccc(C(=O)C2CCN(C(=S)NCC3CCCO3)CC2)cc1 (centres undefined)	11.2 µM [rising, partial curve, poor fit]	–
O=C(Nc1ccc(Nc2ccccc2)cc1)c1ccccc1F	17.8 µM [falling, single point]	–
Cc1cc(C(=O)N/N=C/c2ccc(O)c([N+](=O)[O-])c2)c(C)n1-c1ccc(F)cc1	7.31 µM [falling, partial curve, poor fit]	–
